Source: patent publication US20230132823A1, “BI-FUNCTIONAL COMPOUNDS AND METHODS FOR TARGETED UBIQUITINATION OF ANDROGEN RECEPTOR” (MONTELINO THERAPEUTICS, INC., priority 2020, published 2023)
Some entries share one result that the patent states for a list of compounds. Where a SMILES comes first, the peptide text is derived from it. [ ]: non-standard residue; d: D form. The star is where a group is joined. ξ: configuration not given here. X1 = O=C(COc1c(-c2csc(N3CCOCC3)n2)ccc(F)c1F)NCCCCCCN*; Dip = N[C@H](C(=O)O)C(c1ccccc1)c1ccccc1; Chg = N[C@H](C(=O)O)C1CCCCC1; NMeA = CN[C@@H](C)C(=O)O; ξP = O=C(O)C1CCCN1

Assays:
22Rv1-Enz^R cells = assay: 22Rv1-Enz^R cell proliferation (cell count, Experimental Example 3); type: cell-based, human; details: 10 μM, 4 days
Protocol: The human prostate cancer cell line, 22Rv1 has been reported to express a high level of AR-V7. Thus, 22Rv1 was seeded at 50,000 cells/well on a 24-well plate in quadruplicates and treated with test compound in concentrations ranging up to 20 μM for four days. Standard culture media was RPMI-1640 supplemented with 10% fetal bovine serum. The test compound initially was dissolved in DMSO at 50 mM. This stock solution was then diluted as needed for the indicated concentrations. At the end of the four-day period, cells were harvested using 1% trypsin and counted using an automated cell counter.
(§1) Cell Culture. Human CaP cell lines, LNCaP, 22Rv1, VCaP, PC3, and DU145 are obtained from the American Type Culture Collection (ATCC) and maintained in the standard culture media: RPMI-1640 supplemented with 10% fetal bovine serum (FBS). LNCaP, 22Rv1, and VCaP are androgen-responsive cell lines, while PC3 and DU145 are not. To establish SAT resistant CaP cell lines, LNCaP, 22Rv1, and VCaP are treated continuously with 10-50 μM abiraterone, apalutamide, darolutamide, or enzalutamide. After 3-6 months, stable cell lines are established and designated as LNCaP-Abi^R, LNCaP-Apa^R, LNCaP-Daro^R, LNCaP-Enz^R, VCaP-Abi^R, VCaP-Apa^R, VCaP-Daro^R, VCaP-Enz^R, 22Rv1-Abi^R, 22Rv1-Apa^R, 22Rv1-Daro^R and 22Rv1-Enz^R. Unless otherwise specified, the standard culture media for these SAT-resistant cell lines included 10 μM of their respective SAT. For the proteasome inhibitor study, the inhibitors MG132 and Epoxomicin are used. The E3 ligase inhibitors Heclin, Nutlin 3a, Thalidomide, and VH298 are used. Cell lines obtained from ATCC are confirmed by checking their morphology using optical microscopy, establishing baselines for cell proliferation, verifying species of origin using isoenzymology, and characterizing the cell's DNA fingerprint using short tandem repeat (STR) profiling. Mycoplasma contamination is also assessed using a PCR based detection system.

22Rv1 = 22Rv1 cell proliferation assay (Experimental Example 3); type: cell-based, human; details: at up to 1 μM; no significant changes compared to control
Protocol: The human prostate cancer cell line, 22Rv1 has been reported to express a high level of AR-V7. […] Standard culture media was RPMI-1640 supplemented with 10% fetal bovine serum. The test compound initially was dissolved in DMSO at 50 mM. This stock solution was then diluted as needed for the indicated concentrations. […]
as §1, with “Cell lines obtained from ATCC are confirmed by checking their morphology using optical microscopy, establishing baselines for cell proliferation, verifying species of origin using isoenzymology, and characterizing the cell's DNA fingerprint using short tandem repeat (STR) profiling.” left out

SMILES	reduction of 22Rv1-Enz^R cell counts (22Rv1-Enz^R cells)	22Rv1 cell count, % of control cell counts (22Rv1)
Cl.NCCCCCCCCCCNc1cccc2c1C(=O)N(C1CCC(=O)NC1=O)C2=O (centres unmarked) [Example 34, 4-((10-aminodecyl)amino)-2-(2,6-dioxopiperidin-3-yl)isoindoline-1,3-dione hydrochloride]	more than 50%	–
Cc1ncsc1-c1ccc([C@H](C)NC(=O)[C@@H]2C[C@@H](O)CN2C(=O)[C@@H](NC(=O)CCCCNC(=O)CO)C(C)(C)C)cc1 [Example C2, reference compound]	–	95-105 % of control
O=C(O)CCCCNC(=O)COc1c(-c2csc(N3CCOCC3)n2)ccc(F)c1F [Example C1, reference compound]	–	95-105 % of control
CN[C@@H](C)C(=O)N[C@H](C(=O)N1CCCC1C(=O)N[C@H](C(=O)NCCCCCCNC(=O)COc1c(-c2csc(N3CCOCC3)n2)ccc(F)c1F)C(c1ccccc1)c1ccccc1)C1CCCCC1 (stereo partly drawn) [Example 26, (S)-1-((S)-2-cyclohexyl-2-((S)-2-(methylamino)propanamido)acctyl)-N-((S)-1-((6-(2-(2,3-difluoro-6-(2-morpholinothiazol-4-yl)phenoxy)acetamido)hexyl)amino)-1-oxo-3,3-diphenylpropan-2-yl)pyrrolidine-2-carboxamide] (H-[NMeA][Chg][ξP][Dip]-X1)	more than 50%	–
CN[C@@H](C)C(=O)N[C@H](C(=O)N1Cc2cc(OCCOCCOc3c(-c4csc(N5CCOCC5)n4)ccc(F)c3F)ccc2C[C@H]1C(=O)N[C@@H]1CCCc2ccccc21)C(C)(C)C.Cl.Cl [Example 35, (S)-7-(2-(2-(2,3-difluoro-6-(2-morpholinothiazol-4-yl)phenoxy)ethoxy)ethoxy)-2-((S)-3,3-dimethyl-2-((S)-2-(methylamino)propanamido)butanoyl)-N-((R)-1,2,3,4-tetrahydronaphthalen-1-yl)-1,2,3,4-tetrahydroisoquinoline-3-carboxamide dihydrochloride]	more than 50%	–
